Data from PMC10433649.
These are yes or no findings as the source states them, for the method shown. For some assays here: In cells and extracts the contact can be indirect. Some binding calls cover weakened binding; strength is not graded here. Values belong to the substance of their own block, whether it stands above or below them.

The chains behind the UniProt entries cited, without tags or fusion partners.
UniProt P08727: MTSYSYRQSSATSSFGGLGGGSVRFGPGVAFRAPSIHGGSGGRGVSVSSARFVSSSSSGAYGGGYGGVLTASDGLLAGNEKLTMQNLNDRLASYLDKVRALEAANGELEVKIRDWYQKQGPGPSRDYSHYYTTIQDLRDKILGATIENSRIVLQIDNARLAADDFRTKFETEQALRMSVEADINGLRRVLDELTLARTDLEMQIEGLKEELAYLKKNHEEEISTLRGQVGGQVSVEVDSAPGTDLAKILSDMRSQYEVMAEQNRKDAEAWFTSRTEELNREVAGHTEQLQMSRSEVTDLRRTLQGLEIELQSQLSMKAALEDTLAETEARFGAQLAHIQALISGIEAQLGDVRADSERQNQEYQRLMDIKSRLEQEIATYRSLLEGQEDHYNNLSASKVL

What was measured:
[1] = target: GFP-tagged K19 (UniProt P08727); experiment: co-IP; HEK293 cells transiently expressing GFP or GFP-K19; immunoblot for HNRNPK
[2] = target: Keratin 19 (K19), endogenous in MDA-MB-231 cells (human (endogenous in MDA-MB-231)) (UniProt P08727); experiment: proximity ligation; Duolink in situ PLA with K19 and HNRNPK antibodies on fixed MDA-MB-231 parental cells, permeabilized with 0.01% digitonin (Fig. 1A) or with triton (Fig. S1B); KRT19 KO cells as control
[3] = target: Keratin 19 (K19), endogenous in MDA-MB-231 cells (human (endogenous in MDA-MB-231)) (UniProt P08727); experiment: co-IP; endogenous proteins; anti-K19 IP in Triton lysis buffer (1% Triton X-100, 40 mM HEPES pH 7.5, 120 mM sodium chloride, 1 mM EDTA) with 2% empigen, Protein G Sepharose, IgG control, immunoblot
[4] = target: Heterogeneous nuclear ribonucleoprotein K (HNRNPK), endogenous in MDA-MB-231 cells (human (endogenous in MDA-MB-231)) (UniProt P61978); experiment: co-IP; endogenous proteins; anti-HNRNPK IP in NP-40 lysis buffer (0.25% NP-40, 50 mM Tris pH 8.0, 100 mM sodium chloride), Protein G Sepharose, IgG control, immunoblot
[5] = target: preassembled K8/K19 filaments (UniProt P08727); experiment: co-sedimentation; high-speed in vitro co-sedimentation; recombinant HNRNPK incubated with or without preassembled K8/K19 filaments; supernatant and pellet immunoblotted; both purified

binding [1]: binds
Substance: HNRNPK in HEK293 cells (from UniProt P61978 1-463)

binding [2]: binds
binding [3]: binds
Substance: Heterogeneous nuclear ribonucleoprotein K (HNRNPK), endogenous in MDA-MB-231 cells (from UniProt P61978 1-463)

binding [4]: binds
Substance: Keratin 19 (K19), endogenous in MDA-MB-231 cells (from UniProt P08727 1-400)

binding [5]: binds
Substance: recombinant HNRNPK (from UniProt P61978 1-463)
